Source: US20110212466A1, “Thiol-Modified Surface Immobilization Article And Method” (priority 2009, published 2011)

How the values were obtained:
[1] = CAII immobilization on dEMA-thiol-modified Epic 5041 plate surface (Example 1)
[2] = system: carbonic anhydrase (CAII); test: furosemide binding on immobilized CAII, Epic biosensor (Example 1)
[3] = CAII immobilization on cystine-derived thiol-modified Epic 5046 plate surface (Example 2)
[4] = CAII immobilization on thiol-modified copolymer (AA/MAm) surface (Example 3); details: protein:linker 1:6
[5] = system: carbonic anhydrase (CAII); test: furosemide binding on immobilized CAII, Epic biosensor (Example 3)
Method: Step 3. Binding of protein inhibitor: The plate was equilibrated at ambient (25° C.) temperature for about 30 min before rinsing with PBS (on Biomek, following standard rinsing protocol). The plate was centrifuged and soaked in 0.1% DMSO in PBS for about 4 h at ambient temperature.
The plate was then read in the Epic® instrument for 20 min.

[6] = CAII concentration 10 micrograms/mL
[7] = CAII concentration 25 micrograms/mL
[8] = CAII concentration 50 micrograms/mL
[9] = CAII concentration 75 micrograms/mL
[10] = CAII concentration 100 micrograms/mL
[11] = surface made with cystamine 50 mM
[12] = surface made with cystamine 200 mM
[13] = surface made with cystamine/glycine 25/25 mM
[14] = surface made with cystamine/glycine 100/100 mM
[15] = surface made with cystine 10 mM
[16] = surface made with saturated cystine

With “CAII: carbonic anhydrase (CAII, Sigma), modified with maleimide linker MAL-AHA-NHS at the stated ratio before immobilization; ratio 0 is unmodified” the Protein Immob. level [1, 6] was 258 pm, the Protein Immob. level [1, 7] was 514 pm and the Protein Immob. level [1, 8] was 1263 pm. For the same substance, the Protein Immob. level [1, 9] was 2083 pm, the Protein Immob. level [1, 10] was 3174 pm and the “Protein Immob. level” value ([1]; MAL-AHA-NHS/CAII ratio 0 (unmodified CAII)) was 196 pm. For the same substance, the “Protein Immob. level” value ([1]; MAL-AHA-NHS/CAII ratio 3) was 2177 pm, the “Protein Immob. level” value ([1]; MAL-AHA-NHS/CAII ratio 6) was 3248 pm and the “Protein Immob. level” value ([1]; MAL-AHA-NHS/CAII ratio 12) was 4075 pm. For the same substance, the “Protein Immob. level” value ([1]; MAL-AHA-NHS/CAII ratio 24) was 4520 pm, the “Protein Immob. level” value ([1]; MAL-AHA-NHS/CAII ratio 48) was 4612 pm and the “Protein Immob. level” value ([1]; MAL-AHA-NHS/CAII ratio 96) was 4506 pm. For the same substance, the “immobilization level (plateau)” value ([1]; levels off from about 12 to about 100 equivalents of maleimide-linker reagent to protein) was “about 4,500 picometers (pm)”, the Availability % [2, 6] was −2% and the Availability % [2, 7] was 8%. For the same substance, the Availability % [2, 8] was 18%, the Availability % [2, 9] was 24% and the Availability % [2, 10] was 25%. The Availability % ([2]; binding observed/max binding*100, MAL-AHA-NHS/CAII ratio 0) was −10%, the Availability % ([2]; binding observed/max binding*100, MAL-AHA-NHS/CAII ratio 3) was 20% and the Availability % ([2]; binding observed/max binding*100, MAL-AHA-NHS/CAII ratio 6) was 23%. For the same substance, the Availability % ([2]; binding observed/max binding*100, MAL-AHA-NHS/CAII ratio 12) was 25%, the Availability % ([2]; binding observed/max binding*100, MAL-AHA-NHS/CAII ratio 24) was 23% and the Availability % ([2]; binding observed/max binding*100, MAL-AHA-NHS/CAII ratio 48) was 22%. It also gave an Availability % ([2]; binding observed/max binding*100, MAL-AHA-NHS/CAII ratio 96) of 20%, a Protein immob-level ([3]; Ratio of CAII:Maleimide linker 0 (unmodified protein reference)) of 189 pm and a Protein immob-level ([3]; Ratio of CAII:Maleimide linker 3) of 604 pm. It also gave a Protein immob-level ([3]; Ratio of CAII:Maleimide linker 6) of 937 pm, a Protein immob-level ([3]; Ratio of CAII:Maleimide linker 12) of 1522 pm and a Protein immob-level ([3]; Ratio of CAII:Maleimide linker 24) of 2149 pm. For the same substance, the immobilization level ([3]; about 24 equivalents of maleimide-linker reagent to protein) was “about 2,000 picometers (pm)”, the “Total Immob.” value [4, 11] was 2,254.83 RU and the “Total Immob.” value [4, 12] was 2,335.86 RU. For the same substance, the “Total Immob.” value [4, 13] was 2,722.71 RU, the “Total Immob.” value [4, 14] was 2,692.57 RU and the “Total Immob.” value [4, 15] was 2,807.35 RU. The “Total Immob.” value [4, 16] was 3,258.16 RU, the Activity % [5, 11] was 23.35% and the Activity % [5, 12] was 28.77%. For the same substance, the Activity % [5, 13] was 27.35%, the Activity % [5, 14] was 26.71% and the Activity % [5, 15] was 26.16%. The Activity % [5, 16] was 22.38%.
